Reference: the supplement of paper PMC11348887
Where a name gives a salt, the structure may show the parent alone. The list shows a part of the results. Small differences around the control level are noise. Where a SMILES comes first, the peptide text is derived from it. [ ]: non-standard residue; d: D form. The star is where a group is joined. Sta = CC(C)C[C@H](N)[C@@H](O)CC(=O)O; Isovaleryl = CC(C)CC(=O)*

Tests used:
Conditions in all cases: 5 µM; treatment: days 7-14 after plating, readout day 21
[1] = test system: hPSC-derived cortical neurons (WA09); test: nucleus area z-score vs screen plate; higher = larger nuclei (more mature)
[2] = test system: hPSC-derived cortical neurons (WA09); test: total neurite length per nucleus (MAP2) z-score; higher = more neurite growth
[3] = test system: hPSC-derived cortical neurons (WA09); test: nucleus roundness z-score vs screen plate; higher = rounder nuclei (more mature)
[4] = test system: hPSC-derived cortical neurons (WA09); test: KCl-induced FOS+/EGR-1+ double-positive nuclei fraction z-score (KCl minus unstimulated); higher = stronger activity-induced IEG response

Row | Compound | nucleus area z-score [1] | total neurite length per nucleus (z-score) [2] | nucleus roundness z-score [3] | KCl-induced FOS+/EGR-1+ double-positive nuclei fraction z-score [4]
1 | COc1ccc(-c2cc(=O)c3c(O)cc(O)cc3o2)cc1O [Diosmetin] | 0.869 | -0.686 | -1.29 | -0.889
2 | Cc1cc(=O)n(-c2ccccc2)n1C [Antipyrine] | -0.314 | 0.252 | 0.379 | -0.018
3 | Cc1cc([N+](=O)[O-])ccc1NS(=O)(=O)c1cc(Cl)ccc1Cl | 0.697 | 0.298 | 0.681 | 1.15
4 | C[C@@H](NCCCc1cccc(C(F)(F)F)c1)c1cccc2ccccc12 [Cinacalcet HCl] | -0.3 | -1.58 | -0.441 | 0.0283
5 | O=[N+]([O-])c1ccc2c(c1)S(=O)(=O)C=C2 [Stattic] | -0.318 | -0.916 | -0.288 | 0.369
6 | CN(C)c1cccc(-c2c3c(=O)n(-c4ccccc4Cl)[nH]c3cc(=O)n2C)c1 | -0.0332 | 0.712 | 0.31 | -0.104
7 | C[C@H]1O[C@@H](O[C@H]2[C@@H](O)C[C@H](O[C@H]3[C@@H](O)C[C@H](O[C@H]4CC[C@@]5(C)[C@H](CC[C@@H]6[C@@H]5C[C@@H](O)[C@]5(C)[C@@H](C7=CC(=O)OC7)CC[C@]65O)C4)O[C@@H]3C)O[C@@H]2C)C[C@H](O)[C@@H]1O [Digoxin] | -5.89 | -2.17 | -3.89 | -2.79
8 | Cc1ccc(NC(=O)c2ccc(CN3CCN(C)CC3)cc2)cc1Nc1nccc(-c2cccnc2)n1 [Imatinib Mesylate (STI571)] | -0.0852 | 0.856 | 0.0199 | 1.21
9 | CNc1nc(-c2ccc3c(N)n[nH]c3c2)cc(N2C[C@@H](C(=O)NC3CCCCC3)CC[C@H]2C)n1 | -0.183 | -0.317 | -0.915 | -0.0383
10 | O[C@@H](COc1cccc2ncccc12)CN1CCN(C2c3ccccc3[C@@H]3[C@H](c4ccccc42)C3(F)F)CC1 (stereo not given in full) | -2.38 | -0.988 | -1.28 | -0.505
11 | Cc1nccn1CC1CCc2c(c3ccccc3n2C)C1=O (stereo not given) [Ondansetron HCl] | -1.59 | -0.0791 | 0.774 | 1.8
12 | Cc1noc(C)c1-c1ccc(-c2cc(C(N)=O)c(NC(N)=O)s2)c(O[C@H]2CCNC2)c1 | -1.2 | -0.504 | -0.22 | 0.727
13 | COc1ccc(/C=C/C(=O)Nc2ccccc2C(=O)O)cc1OC [Tranilast] | 0.183 | -0.266 | -0.569 | 0.56
14 | Cc1cccc(C)c1OCC(C)N (stereo not given) [Mexiletine HCl] | 0.0101 | 0.395 | 0.258 | 0.269
15 | CCCc1cc(=O)[nH]c(=S)[nH]1 [Propylthiouracil] | -0.543 | 0.38 | 0.122 | 1.32
16 | CC(C)CC(=O)N[C@H](C(=O)N[C@H](C(=O)N[C@@H](CC(C)C)[C@@H](O)CC(=O)N[C@@H](C)C(=O)N[C@@H](CC(C)C)[C@@H](O)CC(=O)O)C(C)C)C(C)C [Pepstatin A] (Isovaleryl-VV[Sta]A[Sta]-OH) | 0.0157 | 0.557 | 1.89 | 1.45
17 | C=CC[N+]1([C@H]2C[C@H]3[C@@H]4CC[C@H]5C[C@H](O)[C@@H](N6CCOCC6)C[C@]5(C)[C@H]4CC[C@]3(C)[C@H]2OC(C)=O)CCCC1 [Rocuronium Bromide] | 1.3 | 1.17 | 0.449 | 0.764
18 | CC(C[N+](C)(C)C)OC(N)=O (stereo not given) [Bethanechol chloride] | 1.9 | 1.06 | 1.2 | 1.31
19 | C=C1c2cccc(O)c2C(=O)C2=C(O)[C@]3(O)C(=O)C(C(N)=O)=C(O)[C@@H](N(C)C)[C@@H]3[C@@H](O)[C@H]12 [Methacycline HCl] | 0.732 | -0.698 | -0.233 | 1.9
20 | CN(C)CCCNC(=O)c1ccc(-c2cc(O)c3ncccc3c2)cc1 | 1 | 1.54 | 0.82 | 0.537
21 | CNc1ncc2cc(-c3cc(NC(=O)NCCC(C)(C)C)c(F)cc3C)c(C)nc2n1 | 0.184 | -0.0903 | -1.88 | -0.208
22 | COc1ccc(CCc2nc3cc(-c4c(C)noc4C)ccc3n2C[C@H](C)N2CCOCC2)cc1Cl | 2.7 | 1.75 | 0.559 | -0.0226
23 | O=[N+]([O-])c1cn2c(n1)OC[C@@H](OCc1ccc(OC(F)(F)F)cc1)C2 | 1.82 | 0.774 | 1.09 | 2.2
24 | COC(=O)C1=C(C)NC(C)=C(C(=O)OCCN2CCN(C(c3ccccc3)c3ccccc3)CC2)C1c1cccc([N+](=O)[O-])c1 (stereo not given) [Manidipine] | -2.47 | -1.67 | -2.03 | -0.269
25 | O=C(O)Cc1ccccc1Nc1c(Cl)cccc1Cl [Diclofenac Sodium] | -0.115 | 0.779 | 0.528 | 0.241

Four of the compounds above, in markdown:

| Row | Compound | nucleus area z-score [1] | total neurite length per nucleus (z-score) [2] | nucleus roundness z-score [3] | KCl-induced FOS+/EGR-1+ double-positive nuclei fraction z-score [4] |
| --- | --- | --- | --- | --- | --- |
| 2 | Cc1cc(=O)n(-c2ccccc2)n1C [Antipyrine] | -0.314 | 0.252 | 0.379 | -0.018 |
| 5 | O=[N+]([O-])c1ccc2c(c1)S(=O)(=O)C=C2 [Stattic] | -0.318 | -0.916 | -0.288 | 0.369 |
| 6 | CN(C)c1cccc(-c2c3c(=O)n(-c4ccccc4Cl)[nH]c3cc(=O)n2C)c1 | -0.0332 | 0.712 | 0.31 | -0.104 |
| 9 | CNc1nc(-c2ccc3c(N)n[nH]c3c2)cc(N2C[C@@H](C(=O)NC3CCCCC3)CC[C@H]2C)n1 | -0.183 | -0.317 | -0.915 | -0.0383 |
